# Results: publication PMC4738335, “MatP regulates the coordinated action of topoisomerase IV and MukBEF in chromosome segregation” (Nature Communications, 2016)
# No constants are given. Whether binding was seen depends on the method and setting. Some binding calls cover weakened binding; strength is not graded here. Sequences can lack the tags named with a protein.
# T1: MukB Hinge (MukB dimerization hinge with 172 amino acids of associated coiled-coil), two-hybrid fusion (E. coli) (UniProt P22523)
# T1 sequence: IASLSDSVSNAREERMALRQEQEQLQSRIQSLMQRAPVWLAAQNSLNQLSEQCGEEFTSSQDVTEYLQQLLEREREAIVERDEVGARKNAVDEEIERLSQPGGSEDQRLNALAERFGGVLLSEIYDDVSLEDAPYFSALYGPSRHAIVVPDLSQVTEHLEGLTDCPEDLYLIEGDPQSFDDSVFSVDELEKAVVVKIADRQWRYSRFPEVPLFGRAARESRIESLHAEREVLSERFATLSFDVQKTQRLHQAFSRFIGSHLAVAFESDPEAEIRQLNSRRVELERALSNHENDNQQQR
# T2: MatP, two-hybrid fusion (E. coli) (UniProt P0A8N0)
# T2 sequence: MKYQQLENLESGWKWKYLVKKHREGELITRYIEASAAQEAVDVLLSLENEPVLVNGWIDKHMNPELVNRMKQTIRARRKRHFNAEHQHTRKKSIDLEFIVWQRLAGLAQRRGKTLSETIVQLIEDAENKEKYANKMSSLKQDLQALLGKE
# T3: MatPΔC18, two-hybrid fusion (E. coli) (UniProt P0A8N0)
# T3 sequence: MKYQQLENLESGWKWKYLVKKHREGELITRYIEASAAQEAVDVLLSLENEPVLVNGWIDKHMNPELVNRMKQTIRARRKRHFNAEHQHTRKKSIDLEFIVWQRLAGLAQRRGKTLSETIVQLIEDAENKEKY
# B1: MatP, two-hybrid fusion (protein, UniProt P0A8N0 1-150)
# chain: T2 sequence
# B2: MukB Hinge (MukB dimerization hinge with 172 amino acids of associated coiled-coil), two-hybrid fusion (domain or fragment, UniProt P22523 566-863)
# chain: T1 sequence
# B3: MatPΔC18, two-hybrid fusion (domain or fragment, UniProt P0A8N0 1-132)
# chain: T3 sequence
# B4: MatPΔC20, two-hybrid fusion (domain or fragment, UniProt P0A8N0 1-130)
# chain: MKYQQLENLESGWKWKYLVKKHREGELITRYIEASAAQEAVDVLLSLENEPVLVNGWIDKHMNPELVNRMKQTIRARRKRHFNAEHQHTRKKSIDLEFIVWQRLAGLAQRRGKTLSETIVQLIEDAENKE
# Columns and labels:
# Assay in all cases: two-hybrid; bacterial two-hybrid by adenylate cyclase T18/T25 reconstitution; proteins fused to the N terminus of T25 (pKNT25) and the C terminus of T18 (pUT18C); blue colour on X-gal plates, 30 °C then room temperature
# [1] = target: T1, MukB Hinge (MukB dimerization hinge with 172 amino acids of associated coiled-coil), two-hybrid fusion (E. coli)
# [2] = target: T2, MatP, two-hybrid fusion (E. coli)
# [3] = target: T3, MatPΔC18, two-hybrid fusion (E. coli)
# [4] = target: MatPΔC20, two-hybrid fusion (E. coli) (UniProt P0A8N0)
Binder,binding [1],binding [2],binding [3],binding [4]
B1,binds weakly,binds,,
B2,binds,,,
B3,binds weakly,binds,binds,
B4,binds weakly,binds,binds,binds
